# Source: the supplement of paper PMC12578635
# The other results are listed elsewhere or left out. Cut-off read from the data, not from the text of the source: active = 150% or more and inactive = the rest. Single values are uncertain, as repeats are few or missing.
# Test system: Staphylococcus aureus JE2-lux inside RAW 264.7 macrophages
# Test: intracellular bacterial bioluminescence relative to DMSO vehicle; higher = higher intracellular bacterial metabolic activity
# Details: 10 µM; treatment time 4 h; gentamicin 50 µg/ml
row,Structure (SMILES),intracellular bacterial bioluminescence
1,Cc1cccn2c(=O)c(C=O)c(Nc3ccc([N+](=O)[O-])cc3)nc12,inactive: 90%
2,Cc1[nH]c2c(C(=O)Nc3ccc(Cl)cc3)cnn2c(=O)c1C,inactive: 129%
3,COCCCNc1nc2c(-c3ccc(Cl)cc3)nnn2c2ccccc12,inactive: 98.5%
4,Cc1ccc(N2C(=O)NC3CC2(C)Oc2ccccc23)cc1Cl (configuration not stated),inactive: 36.7%
5,Cc1nnc(SCC(=O)NCCc2ccccc2)[nH]c1=O,inactive: 115%
6,COc1ccc(C)c2sc(NC(=O)C3=COCCO3)nc12,inactive: 72.3%
7,Cc1cc2c(cc1NC(=O)C1OCOc3ccccc31)OCCO2 (configuration not stated),inactive: 87.6%
8,CCOC(=O)c1c(NC(=O)c2cc(-c3cccs3)on2)sc2c1CCC2,inactive: 91.3%
9,CC(=O)c1sc(Nc2nc3cc4c(cc3s2)OCO4)nc1C,inactive: 109%
10,COc1ccc(-c2c(C#N)c(N)nc3sc(C(=O)c4ccc(Cl)cc4)c(N)c23)cc1OC,inactive: 95.6%
11,Cc1cccc(NC(=O)CSc2nnc3sc4ccccc4n23)c1,inactive: 98%
12,CCCc1cc(=O)n2c([nH]c3ccccc32)c1C#N,inactive: 96.9%
13,CCc1cccc(Nc2cc(-n3nc(C)cc3C)ncn2)c1,inactive: 39.2%
14,CCOCCCNc1nc(-c2nnc(-c3ccccc3)o2)nc2ccccc12,inactive: 39.3%
15,O=C1Nc2ccccc2/C1=N/NC(=O)C(c1ccccc1)c1ccccc1,inactive: 86.9%
16,Cc1sc2nc(SCC(=O)c3ccc4c(c3)NC(=O)CO4)nc(N)c2c1C,inactive: 92.4%
17,Cc1c(C)n(CCCN2CCOCC2)c2ncn3nc(C(C)N4C(=O)c5ccccc5C4=O)nc3c12 (configuration not stated),inactive: 114%
18,CC1=C(C(=O)OCc2ccccc2)C(c2ccc(O)cc2)n2ncnc2N1 (configuration not stated),inactive: 121%
19,O=C(CSc1nnc2sc3ccccc3n12)NCc1ccco1,inactive: 81.8%
20,COCCCNc1nc2c(c(=O)[nH]c(=O)n2C)n1CC(=O)c1ccccc1,inactive: 102%
21,CCCCN(C)C(=O)CSc1nccnc1N1CCN(c2cccc(C)c2C)CC1,inactive: 32.3%
22,CCn1cc(NC(=O)Nc2nccs2)c2ccccc21,inactive: 123%
23,COc1cccc(OC(C)C(=O)Nc2nc3c(s2)CCc2c-3cnn2C)c1 (configuration not stated),inactive: 85.5%

# Quoted at random: 4 compounds from above
row,Structure (SMILES),intracellular bacterial bioluminescence
4,Cc1ccc(N2C(=O)NC3CC2(C)Oc2ccccc23)cc1Cl (configuration not stated),inactive: 36.7%
23,COc1cccc(OC(C)C(=O)Nc2nc3c(s2)CCc2c-3cnn2C)c1 (configuration not stated),inactive: 85.5%
15,O=C1Nc2ccccc2/C1=N/NC(=O)C(c1ccccc1)c1ccccc1,inactive: 86.9%
11,Cc1cccc(NC(=O)CSc2nnc3sc4ccccc4n23)c1,inactive: 98%

# Going on with the list.

row,Structure (SMILES),intracellular bacterial bioluminescence
1,COc1ccc(C2c3cccn3CCN2C(=O)Nc2ccc(C)c(C)c2)cc1 (configuration not stated),inactive: 83.5%
2,Nc1c(C(=O)c2ccccc2)sc2nc3cc4c(cc3cc12)OCO4,inactive: 41.3%
3,O=S(=O)(c1ccc(N2CCC(CNc3ncccn3)CC2)cc1)N1CCCC1,inactive: 18%
4,COc1ccccc1NC(=O)CSc1ncnc2c1sc1nc3cc(C)ccc3cc12,inactive: 104%
5,Cn1c(=O)c2c(SCc3ccc(Cl)cc3Cl)ccnc2n(C)c1=O,inactive: 106%
6,O=C(NCCC1CCCCN1S(=O)(=O)c1ccccc1)C(=O)NCc1cccnc1 (configuration not stated),inactive: 77.9%
7,COc1cccc(/C=N/NC(=O)c2cc3cc([N+](=O)[O-])ccc3s2)c1O,inactive: 110%
8,O=C(c1ccc(Cn2c(=O)c(=O)[nH]c3cccnc32)cc1)N1CCN(c2ncccn2)CC1,inactive: 101%
9,C=CCNC(=O)CCCCCn1c(=O)[nH]c2ccsc2c1=O,inactive: 101%
10,[N-]=[N+]=NC1CC(CO)OC1n1ccc(=O)[nH]c1=O (configuration not stated),inactive: 95.5%
11,O=C(Nc1cc(C(F)(F)F)ccc1Cl)c1cnc2n(c1=O)CCS2,inactive: 113%
12,CC1CCc2c(sc(NC(=O)CN(C(=O)c3ccco3)C3CCCCC3)c2C(N)=O)C1 (configuration not stated),inactive: 62.6%
13,CCc1ccc(NC(=O)c2cnn3c(N)c(C#N)c(-c4ccc(Br)cc4)nc23)cc1,inactive: 97.3%
14,CC(=O)c1ccc(Nc2nc(N3CCOCC3)nc(N3CCOCC3)n2)cc1,inactive: 78.1%
15,Cc1ccsc1C1C2=C(COC2=O)Nc2c1c(=O)[nH]c(=O)n2CC(C)C (configuration not stated),inactive: 116%
16,C/C(=N\N)c1c(-c2ccccc2)c2cc(C)ccc2[nH]c1=O,inactive: 80.4%
17,O=C(N/N=C/c1csc([N+](=O)[O-])c1)c1cc2ccccc2cc1O,inactive: 5.12%
18,CCOCCCNC(=O)C(=O)c1cn(CC(=O)N2CCCCCC2)c2ccccc12,inactive: 105%
19,COc1ccc(NC(=O)CSc2nccn(-c3ccc(C)c(F)c3)c2=O)c(OC)c1,inactive: 124%
20,COc1cc2nc(NC(=O)c3ccc(C(C)=O)cc3)sc2cc1OC,inactive: 88.2%
21,O=C(NCCS(=O)c1c(-c2ccc(F)cc2)[nH]c2ccccc12)C(=O)c1c[nH]c2ccccc12 (configuration not stated),inactive: 66.6%
22,Cc1ccc(Nc2nc(NCCOCCO)nc(N)c2[N+](=O)[O-])cc1C,inactive: 16.6%
23,Cc1ccc(-n2nc(C)c3c(C)cc(=O)[nH]c32)cc1C,inactive: 112%

row,Structure (SMILES),intracellular bacterial bioluminescence
1,O=C1C2C3CC(C2C(=O)N1c1ccc(Cl)cc1)C1C(c2cccnc2)c2sc(=O)[nH]c2SC31 (configuration not stated),inactive: 107%
2,CSc1ccccc1NS(=O)(=O)c1cc2c3c(c1)CCC(=O)N3CCC2,inactive: 82.1%
3,COC(=O)c1ccc(NC(=O)CSc2ncc(CO)n2Cc2ccc(F)cc2)cc1,inactive: 78.9%
4,Cc1cc(C)c2nc(NC(=O)CSc3ccccc3)sc2c1,inactive: 75.6%
5,O=C1C(NS(=O)(=O)c2ccccc2)=C/C(=N\S(=O)(=O)c2ccc(F)cc2)c2ccccc21,inactive: 138%
6,CCOc1ccccc1Nc1ncnc2c1c(C)c(C)n2-c1cccc(F)c1,inactive: 117%
7,CNc1n[nH]c(N)c1-c1nc(-c2ccccc2C)no1,inactive: 92.5%
8,CC1=NN(Cc2ccccc2C)c2nc3c(c(=O)n(C)c(=O)n3C)n2C1C (configuration not stated),inactive: 101%
9,COc1cccc(C2C(C(=O)c3ccncc3)=C(O)C(=O)N2CCCN2CCOCC2)c1 (configuration not stated),inactive: 93.3%
10,O=C(Nn1c(C2CCC2)nc2ccccc2c1=O)c1ccc(-c2ccccc2)cc1,inactive: 95.2%
11,CC(=O)Nc1cc2nc(C)n(Cc3ccccc3[N+](=O)[O-])c2nc1C,inactive: 110%
12,Cc1ccc(C)c(NS(=O)(=O)c2ccc3[nH]c(=O)cc(C)c3c2)c1,inactive: 115%
13,Cc1ccnc(N2CCCC(C(=O)NCc3ccc(Cl)cc3)C2)n1 (configuration not stated),inactive: 87.9%
14,COCCOC(=O)c1c(C)oc2cc(Br)c(OCC(N)=O)cc12,inactive: 91.5%
15,O=C(Nc1ccc2c(c1)CCC2)C1CCN(C(=O)Nc2ccc(Cl)cc2)CC1,inactive: 50.9%
16,O=[N+]([O-])c1cccc(NC(c2ccco2)c2ccc3cccnc3c2O)c1 (configuration not stated),inactive: 70.3%
17,O=C(Nc1c(-c2ccccc2)nc2ccccn12)c1cccc([N+](=O)[O-])c1,inactive: 82.5%
18,COc1cc(NC(=O)Cn2cccc2-c2nc(-c3ccccc3)cs2)cc(OC)c1,inactive: 96.1%
19,Cc1c(-c2cc(C(=O)O)c3cc(Br)ccc3n2)nnn1-c1ccccc1,inactive: 118%
20,CCOC(=O)Cn1cnc2nn(-c3ccccc3)cc2c1=O,active: 214%
21,CCS(=O)(=O)c1ccc(C(=O)Nc2ccc3sc(C)nc3c2)cc1,inactive: 109%
22,CCN(CC)C(=O)Cn1cc(C(=O)C(=O)NCc2ccc3c(c2)OCO3)c2ccccc21,inactive: 124%
23,O=C(NCCn1nnn(-c2ccccc2)c1=O)c1ccc(=O)[nH]n1,inactive: 101%

row,Structure (SMILES),intracellular bacterial bioluminescence
1,COc1ccc(/C=C2\Oc3c(ccc(O)c3CN3CCCC3)C2=O)c(OC)c1,inactive: 114%
2,COC(=O)c1ccc(C(=O)NC(=S)Nc2sc3c(c2C#N)CCCCC3)cc1,inactive: 105%
3,Nc1cc(Cl)c([N+](=O)[O-])cc1OCc1ccccc1,inactive: 49.9%
4,O=C(Oc1c(CN2CCOCC2)cc(Cl)c2cccnc12)c1cccc([N+](=O)[O-])c1,inactive: 107%
5,Cc1ccc(CSc2oc(-c3ccco3)nc2S(=O)(=O)c2ccccc2)cc1,inactive: 125%
6,COc1ccc(-c2nc3sc(C)nn3c2NC2CCCCC2)cc1,inactive: 106%
7,COc1cccc(NCc2nc3[nH]c(C)c(Cc4ccccc4)c(=O)n3n2)c1,inactive: 91.8%
8,COC(=O)NC(=O)c1c(NC(=O)c2cc3ccccc3oc2=O)sc(C)c1C,inactive: 81%
9,Cc1ccc(/C=C2/SC(=S)N(c3ccc(C(=O)O)c(O)c3)C2=O)o1,inactive: 102%
10,Oc1ccc(Br)c(C2Nc3ccc(F)cc3[C@H]3OCC[C@@H]23)c1 (some centres not stated),inactive: 108%
11,Cc1ccccc1C1CC(=O)c2c(C)nc(N)nc2C1 (configuration not stated),inactive: 107%
12,O=C1CC(NS(=O)(=O)c2cccs2)CN1c1ccc(Cl)cc1 (configuration not stated),inactive: 107%
13,CCS(=O)(=O)c1ccc(C(=O)Nc2nc3c(Cl)c(Cl)ccc3s2)cc1,active: 152%
14,CCCNC(=O)Cn1nc(-c2ccc(F)cc2)c2cnc3cc(OC)c(OC)cc3c21,inactive: 66.7%
15,CCc1ccccc1NC(=O)Cn1c(C)cc(=O)n2nc(-c3cccc(C)c3)nc12,inactive: 91.4%
16,Cc1cc(=O)n2c3ccccc3n(CC(O)CNc3ccc(C(C)C)cc3)c2c1C#N (configuration not stated),inactive: 26.8%
17,CCn1cc(C(=O)Nc2ccc(OC(F)(F)F)cc2)c2nn(-c3ccccc3)c(=O)c-2c1,inactive: 111%
18,Cc1nc2ccccc2c(=O)n1-c1cccc(NC(=O)c2cc([N+](=O)[O-])cc([N+](=O)[O-])c2)c1,inactive: 124%
19,CCC(Oc1ccc(F)cc1)C(=O)Nc1noc(-c2ccccc2C)n1 (configuration not stated),inactive: 82.6%
20,NC1=NN(c2ccccc2)C(=O)/C1=N\Nc1ccc2c(c1)OCO2,inactive: 93.4%
21,Cc1cc(NC(=O)CSc2nnc3ccccn23)no1,inactive: 107%
22,Cc1ccc(-c2nsc(NC(=O)COc3ccccc3)n2)s1,inactive: 80.3%
23,COc1ccccc1N1CCN(c2cc(=O)n(-c3ccc(Br)cc3)c(=O)[nH]2)CC1,inactive: 103%

# 2 of these compounds in another layout.
row	Structure (SMILES)	intracellular bacterial bioluminescence
14	COCCOC(=O)c1c(C)oc2cc(Br)c(OCC(N)=O)cc12	inactive: 91.5%
11	Cc1ccccc1C1CC(=O)c2c(C)nc(N)nc2C1 (configuration not stated)	inactive: 107%
